Data taken from patent US20220074941A1, “HSP90 COMBINATION THERAPY” (Sloan-Kettering Institute for Cancer Research, priority 2011, published 2022).

Legend:
[1] = test system: Hsp90 complexes in K562 cell extract; assay: Nano-LC-MS/MS of PU-beads pull-downs; format: binding; conditions: protein identified in PU-beads pull-down of K562 extract, QSTAR-Elite QTof MS
Summary of the method: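 Lysates pre-cleared overnight at 4 °C with control beads, then pulled down with PU-beads or control beads; eluted proteins (2% SDS boil) gel-separated and analysed by nano LC-MS/MS on a QTof. Mascot identification (p<0.05), spectral counts and sequence coverage evaluated in Scaffold.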

[2] = test system: Hsp90 complexes in Mia-PaCa-2 cell extract; assay: Nano-LC-MS/MS of PU-beads pull-downs; format: binding, human; conditions: protein identified in PU-beads pull-down of Mia-Paca 2 extract; QSTAR-Elite QTof MS
Description: Lysates prepared as mentioned above were first pre-cleaned by incubation with control beads overnight at 4° C. […] Beads were washed with lysis buffer, proteins eluted by boiling in 2% SDS, separated on a denaturing gel and Coomassie stained according to manufacturer's procedure (Biorad). […] Analyses of the batch purified pools were done using a QSTAR-Elite hybrid quadrupole time-of-flight mass spectrometer (QTof MS) (AB/MDS Sciex), equipped with a nano spray ion source. Peptide mixtures (in 20 μL) are loaded onto a trapping guard column (0.3×5-mm PepMap C18 100 cartridge from LC Packings) using an Eksigent nano MDLC system (Eksigent Technologies, Inc) at a flow rate of 20 μL/min. […] Electrospray ionization (ESI) needle voltage was set at about 1800 V. The mass analyzer is operated in automatic, data-dependent MS/MS acquisition mode, with the threshold set to 10 counts per second of doubly or triply charged precursor ions selected for fragmentation scans. Survey scans of 0.25 sec are recorded from 400 to 1800 amu; up to 3 MS/MS scans are then collected sequentially for the selected precursor ions, recording from 100 to 1800 amu. The collision energy is automatically adjusted in accordance with the m/z value of the precursor ions selected for MS/MS. Selected precursor ions are excluded from repeated selection for 60 sec after the end of the corresponding fragmentation duty cycle. […] One missed tryptic cleavage site was allowed, precursor ion mass tolerance=0.4 Da fragment ion mass tolerance=0.4 Da, protein modifications were allowed for Met-oxide, Cys-acrylamide and N-terminal acetylation. MudPit scoring was typically applied with ‘require bold red’ activated, and using significance threshold score p<0.05. Unique peptide counts (or ‘spectral counts’) and percent sequence coverages for all identified proteins were exported to Scaffold Proteome Software (version 2_06_01, www.proteomesoftware.com) for further bioinformatic analysis (Table 5a). Using output from Mascot, Scaffold validates, organizes, and interprets mass spectrometry data, allowing more easily to manage large amounts of data, to compare samples, and to search for protein modifications.

Row | Molecule | Number of Assigned Spectra, K562 Prep 1 [1] | Number of Assigned Spectra, K562 Prep 2 [1] | Number of Assigned Spectra, Mia-Paca 2 [2]
1 | CDK7 (protein, UniProt P50613 2-346, looked up) Cyclin-dependent kinase 7: ALDVKSRAKRYEKLDFLGEGQFATVYKARDKNTNQIVAIKKIKLGHRSEAKDGINRTALREIKLLQELSHPNIIGLLDAFGHKSNISLVFDFMETDLEVIIKDNSLVLTPSHIKAYMLMTLQGLEYLHQHWILHRDLKPNNLLLDENGVLKLADFGLAKSFGSPNRAYTHQVVTRWYRAPELLFGARMYGVGVDMWAVGCILAELLLRVPFLPGDSDLDQLTRIFETLGTPTEEQWPDMCSLPDYVTFKSFPGIPLHHIFSAAGDDLLDLIQGLFLFNPCARITATQALKMKYFSNRPGPTPGCQLPRPNCPVETLKEQSNPALAIKRKRTEALEQGGLPKKLIF | 2 | 0 | 1
2 | SRPK2 (protein, UniProt P78362 1-688, looked up) SRSF protein kinase 2: MSVNSEKSSSSERPEPQQKAPLVPPPPPPPPPPPPPLPDPTPPEPEEEILGSDDEEQEDPADYCKGGYHPVKIGDLFNGRYHVIRKLGWGHFSTVWLCWDMQGKRFVAMKVVKSAQHYTETALDEIKLLKCVRESDPSDPNKDMVVQLIDDFKISGMNGIHVCMVFEVLGHHLLKWIIKSNYQGLPVRCVKSIIRQVLQGLDYLHSKCKIIHTDIKPENILMCVDDAYVRRMAAEATEWQKAGAPPPSGSAVSTAPQQKPIGKISKNKKKKLKKKQKRQAELLEKRLQEIEELEREAERKIIEENITSAAPSNDQDGEYCPEVKLKTTGLEEAAEAETAKDNGEAEDQEEKEDAEKENIEKDEDDVDQELANIDPTWIESPKTNGHIENGPFSLEQQLDDEDDDEEDCPNPEEYNLDEPNAESDYTYSSSYEQFNGELPNGRHKIPESQFPEFSTSLFSGSLEPVACGSVLSEGSPLTEQEESSPSHDRSRTVSASSTGDLPKAKTRAADLLVNPLDPRNADKIRVKIADLGNACWVHKHFTEDIQTRQYRSIEVLIGAGYSTPADIWSTACMAFELATGDYLFEPHSGEDYSRDEDHIAHIIELLGSIPRHFALSGKYSREFFNRRGELRHITKLKPWSLFDVLVEKYGWPHEDAAQFTDFLIPMLEMVPEKRASAGECLRHPWLNS | 1 | 1 | 0
3 | SRPK1 (protein, UniProt Q96SB4 1-655, looked up) SRSF protein kinase 1: MERKVLALQARKKRTKAKKDKAQRKSETQHRGSAPHSESDLPEQEEEILGSDDDEQEDPNDYCKGGYHLVKIGDLFNGRYHVIRKLGWGHFSTVWLSWDIQGKKFVAMKVVKSAEHYTETALDEIRLLKSVRNSDPNDPNREMVVQLLDDFKISGVNGTHICMVFEVLGHHLLKWIIKSNYQGLPLPCVKKIIQQVLQGLDYLHTKCRIIHTDIKPENILLSVNEQYIRRLAAEATEWQRSGAPPPSGSAVSTAPQPKPADKMSKNKKKKLKKKQKRQAELLEKRMQEIEEMEKESGPGQKRPNKQEESESPVERPLKENPPNKMTQEKLEESSTIGQDQTLMERDTEGGAAEINCNGVIEVINYTQNSNNETLRHKEDLHNANDCDVQNLNQESSFLSSQNGDSSTSQETDSCTPITSEVSDTMVCQSSSTVGQSFSEQHISQLQESIRAEIPCEDEQEQEHNGPLDNKGKSTAGNFLVNPLEPKNAEKLKVKIADLGNACWVHKHFTEDIQTRQYRSLEVLIGSGYNTPADIWSTACMAFELATGDYLFEPHSGEEYTRDEDHIALIIELLGKVPRKLIVAGKYSKEFFTKKGDLKHITKLKPWGLFEVLVEKYEWSQEEAAGFTDFLLPMLELIPEKRATAAECLRHPWLNS | 11 | 2 | 7
4 | BMP2K (protein, UniProt Q9NSY1 1-1161, looked up) BMP-2-inducible protein kinase: MKKFSRMPKSEGGSGGGAAGGGAGGAGAGAGCGSGGSSVGVRVFAVGRHQVTLEESLAEGGFSTVFLVRTHGGIRCALKRMYVNNMPDLNVCKREITIMKELSGHKNIVGYLDCAVNSISDNVWEVLILMEYCRAGQVVNQMNKKLQTGFTEPEVLQIFCDTCEAVARLHQCKTPIIHRDLKVENILLNDGGNYVLCDFGSATNKFLNPQKDGVNVVEEEIKKYTTLSYRAPEMINLYGGKPITTKADIWALGCLLYKLCFFTLPFGESQVAICDGNFTIPDNSRYSRNIHCLIRFMLEPDPEHRPDIFQVSYFAFKFAKKDCPVSNINNSSIPSALPEPMTASEAAARKSQIKARITDTIGPTETSIAPRQRPKANSATTATPSVLTIQSSATPVKVLAPGEFGNHRPKGALRPGNGPEILLGQGPPQQPPQQHRVLQQLQQGDWRLQQLHLQHRHPHQQQQQQQQQQQQQQQQQQQQQQQQQQQHHHHHHHHLLQDAYMQQYQHATQQQQMLQQQFLMHSVYQPQPSASQYPTMMPQYQQAFFQQQMLAQHQPSQQQASPEYLTSPQEFSPALVSYTSSLPAQVGTIMDSSYSANRSVADKEAIANFTNQKNISNPPDMSGWNPFGEDNFSKLTEEELLDREFDLLRSNRLEERASSDKNVDSLSAPHNHPPEDPFGSVPFISHSGSPEKKAEHSSINQENGTANPIKNGKTSPASKDQRTGKKTSVQGQVQKGNDESESDFESDPPSPKSSEEEEQDDEEVLQGEQGDFNDDDTEPENLGHRPLLMDSEDEEEEEKHSSDSDYEQAKAKYSDMSSVYRDRSGSGPTQDLNTILLTSAQLSSDVAVETPKQEFDVFGAVPFFAVRAQQPQQEKNEKNLPQHRFPAAGLEQEEFDVFTKAPFSKKVNVQECHAVGPEAHTIPGYPKSVDVFGSTPFQPFLTSTSKSESNEDLFGLVPFDEITGSQQQKVKQRSLQKLSSRQRRTKQDMSKSNGKRHHGTPTSTKKTLKPTYRTPERARRHKKVGRRDSQSSNEFLTISDSKENISVALTDGKDRGNVLQPEESLLDPFGAKPFHSPDLSWHPPHQGLSDIRADHNTVLPGRPRQNSLHGSFHSADVLKMDDFGAVPFTELVVQSITPHQSQQSQPVELDPFGAAPFPSKQ | 4 | 3 | 0
5 | CCAR1 (protein, UniProt Q8IX12 1-1150, looked up) Cell division cycle and …: MAQFGGQKNPPWATQFTATAVSQPAALGVQQPSLLGASPTIYTQQTALAAAGLTTQTPANYQLTQTAALQQQAAAAAAALQQQYSQPQQALYSVQQQLQQPQQTLLTQPAVALPTSLSLSTPQPTAQITVSYPTPRSSQQQTQPQKQRVFTGVVTKLHDTFGFVDEDVFFQLSAVKGKTPQVGDRVLVEATYNPNMPFKWNAQRIQTLPNQNQSQTQPLLKTPPAVLQPIAPQTTFGVQTQPQPQSLLQAQISAASITPLLQTQPQPLLQQPQQKAGLLQPPVRIVSQPQPARRLDPPSRFSGRNDRGDQVPNRKDDRSRERERERRRSRERSPQRKRSRERSPRRERERSPRRVRRVVPRYTVQFSKFSLDCPSCDMMELRRRYQNLYIPSDFFDAQFTWVDAFPLSRPFQLGNYCNFYVMHREVESLEKNMAILDPPDADHLYSAKVMLMASPSMEDLYHKSCALAEDPQELRDGFQHPARLVKFLVGMKGKDEAMAIGGHWSPSLDGPDPEKDPSVLIKTAIRCCKALTGIDLSVCTQWYRFAEIRYHRPEETHKGRTVPAHVETVVLFFPDVWHCLPTRSEWETLSRGYKQQLVEKLQGERKEADGEQDEEEKDDGEAKEISTPTHWSKLDPKTMKVNDLRKELESRALSSKGLKSQLIARLTKQLKVEEQKEEQKELEKSEKEEDEDDDRKSEDDKEEEERKRQEEIERQRRERRYILPDEPAIIVHPNWAAKSGKFDCSIMSLSVLLDYRLEDNKEHSFEVSLFAELFNEMLQRDFGVRIYKSLLSLPEKEDKKEKDKKSKKDERKDKKEERDDETDEPKPKRRKSGDDKDKKEDRDERKKEDKRKDDSKDDDETEEDNNQDEYDPMEAEEAEDEEDDRDEEEMTKRDDKRDINRYCKERPSKDKEKEKTQMITINRDLLMAFVYFDQSHCGYLLEKDLEEILYTLGLHLSRAQVKKLLNKVVLRESCFYRKLTDTSKDEENHEESESLQEDMLGNRLLLPTPTVKQESKDVEENVGLIVYNGAMVDVGSLLQKLEKSEKVRAEVEQKLQLLEEKTDEDEKTILNLENSNKSLSGELREVKKDLSQLQENLKISENMNLQFENQMNKTIRNLSTVMDEIHTVLKKDNVKNEDKDQKSKENGASV | 3 | 0 | 0
